The series relates to BAF complex subunits and histone proteins. Nature of the series: Mass spectrometry proteomics of purified HA-SS18 WT and HA-SS18-SSX1 complexes (Tables 5A-5E). The following applies: for Total / Unique: HA-SS18SSX1_CHR_peptides; for Total: total peptides of the identified protein; for Unique: unique peptides of the identified protein; for Total (total peptides) / Unique (unique peptides) / Total (peptides) / Unique (peptides): HEK-293T. Further details: species or system human.

The mark [1] stands for this setting: HA-SS18SSX1 purification, NE (soluble nuclear extract) fraction, peptides per identified protein.
Setting [2] is: HA-SS18WT_CHR_peptides: protein identified in HA-SS18 WT BAF complex purification from nuclease-treated solubilized chromatin (CHR).
[3] abbreviates: HA-SS18SSX1_CHR_peptides: protein identified in the HA-SS18-SSX1 purification from solubilized chromatin (CHR).
[4] abbreviates: HA-SS18WT_CHR_peptides: HA-SS18 WT purification from nuclease-treated solubilized chromatin (CHR), label = protein identified.
The mark [5] stands for this setting: HA-SS18WT_NE_peptides: HA-SS18 WT complexes purified from nuclear extract (NE), label = protein identified (Gene Symbol).

B1: RPRD2 (protein, UniProt Q5VT52 2-1461, looked up)
Regulation of nuclear …: AAGGGGGSSKASSSSASSAGALESSLDRKFQSVTNTMESIQGLSSWCIENKKHHSTIVYHWMKWLRRSAYPHRLNLFYLANDVIQNCKRKNAIIFRESFADVLPEAAALVKDPSVSKSVERIFKIWEDRNVYPEEMIVALREALSTTFKTQKQLKENLNKQPNKQWKKSQTSTNPKAALKSKIVAEFRSQALIEELLLYKRSEDQIELKEKQLSTMRVDVCSTETLKCLKDKTGGKKFSKEFEEASSKLEEFVNGLDKQVKNGPSLTEALENAGIFYEAQYKEVKVVANAYKTFANRVNNLKKKLDQLKSTLPDPEESPVPSPSMDAPSPTGSESPFQGMGGEESQSPTMESEKSATPEPVTDNRDVEDMELSDVEDDGSKIIVEDRKEKPAEKSAVSTSVPTKPTENISKASSCTPVPVTMTATPPLPKPVNTSLSPSPALALPNLANVDLAKISSILSSLTSVMKNTGVSPASRPSPGTPTSPSNLTSGLKTPAPATTTSHNPLANILSKVEITPESILSALSKTQTQSAPALQGLSSLLQSVTGNPVPASEAASQSTSASPANTTVSTIKGRNLPSSAQPFIPKSFNYSPNSSTSEVSSTSASKASIGQSPGLPSTTFKLPSNSLGFTATHNTSPAAPPTEVTICQSSEVSKPKLESESTSPSLEMKIHNFLKGNPGFSGLNLNIPILSSLGSSAPSESHPSDFQRGPTSTSIDNIDGTPVRDERSGTPTQDEMMDKPTSSSVDTMSLLSKIISPGSSTPSSTRSPPPGRDESYPRELSNSVSTYRPFGLGSESPYKQPSDGMERPSSLMDSSQEKFYPDTSFQEDEDYRDFEYSGPPPSAMMNLEKKPAKSILKSSKLSDTTEYQPILSSYSHRAQEFGVKSAFPPSVRALLDSSENCDRLSSSPGLFGAFSVRGNEPGSDRSPSPSKNDSFFTPDSNHNSLSQSTTGHLSLPQKQYPDSPHPVPHRSLFSPQNTLAAPTGHPPTSGVEKVLASTISTTSTIEFKNMLKNASRKPSDDKHFGQAPSKGTPSDGVSLSNLTQPSLTATDQQQQEEHYRIETRVSSSCLDLPDSTEEKGAPIETLGYHSASNRRMSGEPIQTVESIRVPGKGNRGHGREASRVGWFDLSTSGSSFDNGPSSASELASLGGGGSGGLTGFKTAPYKERAPQFQESVGSFRSNSFNSTFEHHLPPSPLEHGTPFQREPVGPSSAPPVPPKDHGGIFSRDAPTHLPSVDLSNPFTKEAALAHAAPPPPPGEHSGIPFPTPPPPPPPGEHSSSGGSGVPFSTPPPPPPPVDHSGVVPFPAPPLAEHGVAGAVAVFPKDHSSLLQGTLAEHFGVLPGPRDHGGPTQRDLNGPGLSRVRESLTLPSHSLEHLGPPHGGGGGGGSNSSSGPPLGPSHRDTISRSGIILRSPRPDFRPREPFLSRDPFHSLKRPRPPFARGPPFFAPKRPFFPPRY
In turn, B1 registered a Total of 3 and a Unique of 3.

B2: XPC (protein, UniProt Q01831 2-940, looked up)
DNA repair protein …: ARKRAAGGEPRGRELRSQKSKAKSKARREEEEEDAFEDEKPPKKSLLSKVSQGKRKRGCSHPGGSADGPAKKKVAKVTVKSENLKVIKDEALSDGDDLRDFPSDLKKAHHLKRGATMNEDSNEEEEESENDWEEVEELSEPVLGDVRESTAFSRSLLPVKPVEIEIETPEQAKTRERSEKIKLEFETYLRRAMKRFNKGVHEDTHKVHLLCLLANGFYRNNICSQPDLHAIGLSIIPARFTRVLPRDVDTYYLSNLVKWFIGTFTVNAELSASEQDNLQTTLERRFAIYSARDDEELVHIFLLILRALQLLTRLVLSLQPIPLKSATAKGKKPSKERLTADPGGSSETSSQVLENHTKPKTSKGTKQEETFAKGTCRPSAKGKRNKGGRKKRSKPSSSEEDEGPGDKQEKATQRRPHGRERRVASRVSYKEESGSDEAGSGSDFELSSGEASDPSDEDSEPGPPKQRKAPAPQRTKAGSKSASRTHRGSHRKDPSLPAASSSSSSSKRGKKMCSDGEKAEKRSIAGIDQWLEVFCEQEEKWVCVDCVHGVVGQPLTCYKYATKPMTYVVGIDSDGWVRDVTQRYDPVWMTVTRKCRVDAEWWAETLRPYQSPFMDREKKEDLEFQAKHMDQPLPTAIGLYKNHPLYALKRHLLKYEAIYPETAAILGYCRGEAVYSRDCVHTLHSRDTWLKKARVVRLGEVPYKMVKGFSNRARKARLAEPQLREENDLGLFGYWQTEEYQPPVAVDGKVPRNEFGNVYLFLPSMMPIGCVQLNLPNLHRVARKLDIDCVQAITGFDFHGGYSHPVTDGYIVCEEFKDVLLTAWENEQAVIERKEKEKKEKRALGNWKLLAKGLLIRERLKRRYGPKSEAAAPHTDAGGGLSSDEEEGTSSQAEAARILAASWPQNREDEEKQKLKGGPKKTKREKKAAASHLFPFEQL
Molecule B2 had a Total of 3 and a Unique of 3. In addition, under setting [1], the “Total (total peptides)” value worked out at 4 and the “Unique (unique peptides)” value is on record as 4. For the same molecule, under setting [2], the “Total (total peptides)” value is on record as 1 and the “Unique (unique peptides)” value worked out at 1.

B3: NOP56 (protein, UniProt O00567 1-594, looked up)
Nucleolar protein 56: MVLLHVLFEHAVGYALLALKEVEEISLLQPQVEESVLNLGKFHSIVRLVAFCPFASSQVALENANAVSEGVVHEDLRLLLETHLPSKKKKVLLGVGDPKIGAAIQEELGYNCQTGGVIAEILRGVRLHFHNLVKGLTDLSACKAQLGLGHSYSRAKVKFNVNRVDNMIIQSISLLDQLDKDINTFSMRVREWYGYHFPELVKIINDNATYCRLAQFIGNRRELNEDKLEKLEELTMDGAKAKAILDASRSSMGMDISAIDLINIESFSSRVVSLSEYRQSLHTYLRSKMSQVAPSLSALIGEAVGARLIAHAGSLTNLAKYPASTVQILGAEKALFRALKTRGNTPKYGLIFHSTFIGRAAAKNKGRISRYLANKCSIASRIDCFSEVPTSVFGEKLREQVEERLSFYETGEIPRKNLDVMKEAMVQAEEAAAEITRKLEKQEKKRLKKEKKRLAALALASSENSSSTPEECEEMSEKPKKKKKQKPQEVPQENGMEDPSISFSKPKKKKSFSKEELMSSDLEETAGSTSIPKRKKSTPKEETVNDPEEAGHRSGSKKKRKFSKEEPVSSGPEEAVGKSSSKKKKKFHKASQED
As for B3, the “Total (total peptides)” value reads like this: under setting [3], 42; under setting [1], 16. The “Unique (unique peptides)” value came to 31 under setting [3] and 13 under setting [1]. Also, the “Total (peptides)” value under setting [4] was determined as 22 and the “Total (peptides)” value under setting [5] came to 10. The “Unique (peptides)” value by setting is: under setting [4], 18; under setting [5], 10.

B4: RFC1 (protein, UniProt P35251 1-1148, looked up)
Replication factor C subunit 1: MDIRKFFGVIPSGKKLVSETVKKNEKTKSDEETLKAKKGIKEIKVNSSRKEDDFKQKQPSKKKRIIYDSDSESEETLQVKNAKKPPEKLPVSSKPGKISRQDPVTYISETDEEDDFMCKKAASKSKENGRSTNSHLGTSNMKKNEENTKTKNKPLSPIKLTPTSVLDYFGTGSVQRSNKKMVASKRKELSQNTDESGLNDEAIAKQLQLDEDAELERQLHEDEEFARTLAMLDEEPKTKKARKDTEAGETFSSVQANLSKAEKHKYPHKVKTAQVSDERKSYSPRKQSKYESSKESQQHSKSSADKIGEVSSPKASSKLAIMKRKEESSYKEIEPVASKRKENAIKLKGETKTPKKTKSSPAKKESVSPEDSEKKRTNYQAYRSYLNREGPKALGSKEIPKGAENCLEGLIFVITGVLESIERDEAKSLIERYGGKVTGNVSKKTNYLVMGRDSGQSKSDKAAALGTKIIDEDGLLNLIRTMPGKKSKYEIAVETEMKKESKLERTPQKNVQGKRKISPSKKESESKKSRPTSKRDSLAKTIKKETDVFWKSLDFKEQVAEETSGDSKARNLADDSSENKVENLLWVDKYKPTSLKTIIGQQGDQSCANKLLRWLRNWQKSSSEDKKHAAKFGKFSGKDDGSSFKAALLSGPPGVGKTTTASLVCQELGYSYVELNASDTRSKSSLKAIVAESLNNTSIKGFYSNGAASSVSTKHALIMDEVDGMAGNEDRGGIQELIGLIKHTKIPIICMCNDRNHPKIRSLVHYCFDLRFQRPRVEQIKGAMMSIAFKEGLKIPPPAMNEIILGANQDIRQVLHNLSMWCARSKALTYDQAKADSHRAKKDIKMGPFDVARKVFAAGEETAHMSLVDKSDLFFHDYSIAPLFVQENYIHVKPVAAGGDMKKHLMLLSRAADSICDGDLVDSQIRSKQNWSLLPAQAIYASVLPGELMRGYMTQFPTFPSWLGKHSSTGKHDRIVQDLALHMSLRTYSSKRTVNMDYLSLLRDALVQPLTSQGVDGVQDVVALMDTYYLMKEDFENIMEISSWGGKPSPFSKLDPKVKAAFTRAYNKEAHLTPYSLQAIKASRHSTSPSLDSEYNEELNEDDSQSDEKDQDAIETDAMIKKKTKSSKPSKPEKDKEPRKGKGKSSKK
In turn, B4 displayed a Total of 3 and a Unique of 3. Moreover, under setting [1], the “Total (total peptides)” value is 9 and the “Unique (unique peptides)” value is 9. Moreover, under setting [5], the “Total (peptides)” value is on record as 6 and the “Unique (peptides)” value was 6.

B5: TFIP11 (protein, UniProt Q9UBB9 1-837, looked up)
Tuftelin-interacting protein …: MSLSHLYRDGEGRIDDDDDERENFEITDWDLQNEFNPNRQRHWQTKEEATYGVWAERDSDDERPSFGGKRARDYSAPVNFISAGLKKGAAEEAELEDSDDEEKPVKQDDFPKDFGPRKLKTGGNFKPSQKGFAGGTKSFMDFGSWERHTKGIGQKLLQKMGYVPGRGLGKNAQGIINPIEAKQRKGKGAVGAYGSERTTQSMQDFPVVDSEEEAEEEFQKELSQWRKDPSGSKKKPKYSYKTVEELKAKGRISKKLTAPQKELSQVKVIDMTGREQKVYYSYSQISHKHNVPDDGLPLQSQQLPQSGKEAKAPGFALPELEHNLQLLIDLTEQEIIQNDRQLQYERDMVVNLFHELEKMTEVLDHEERVISNLSKVLEMVEECERRMQPDCSNPLTLDECARIFETLQDKYYEEYRMSDRVDLAVAIVYPLMKEYFKEWDPLKDCTYGTEIISKWKSLLENDQLLSHGGQDLSADAFHRLIWEVWMPFVRNIVTQWQPRNCDPMVDFLDSWVHIIPVWILDNILDQLIFPKLQKEVENWNPLTDTVPIHSWIHPWLPLMQARLEPLYSPIRSKLSSALQKWHPSDSSAKLILQPWKDVFTPGSWEAFMVKNIVPKLGMCLGELVINPHQQHMDAFYWVIDWEGMISVSSLVGLLEKHFFPKWLQVLCSWLSNSPNYEEITKWYLGWKSMFSDQVLAHPSVKDKFNEALDIMNRAVSSNVGAYMQPGARENIAYLTHTERRKDFQYEAMQERREAENMAQRGIGVAASSVPMNFKDLIETKAEEHNIVFMPVIGKRHEGKQLYTFGRIVIYIDRGVVFVQGEKTWVPTSLQSLIDMAK
B5: the Total is on record as 3 and the Unique was determined as 3. In addition, under setting [1], the “Total (total peptides)” value was 10 and the “Unique (unique peptides)” value worked out at 10. Under setting [5], the “Total (peptides)” value was determined as 9 and the “Unique (peptides)” value was 8.

For the origin of these results see patent US20250283871A1, “COMPOSITIONS AND METHODS FOR MODULATING THE INTERACTION BETWEEN SS18-SSX FUSION ONCOPROTEIN AND NUCLEOSOMES” (Dana-Farber Cancer Institute, Inc., priority 2020, published 2025).
